Results: PMC9583544
These are yes or no findings as the source states them, for the method shown. In cells and extracts the contact can be indirect. Here binding means that the protein was enriched with, or labelled near, the bait; the list need not be complete.

Protein sequences, listed by entry. Tags and fused reporters are not part of them. Residues count along the entry.
UniProt Q14195: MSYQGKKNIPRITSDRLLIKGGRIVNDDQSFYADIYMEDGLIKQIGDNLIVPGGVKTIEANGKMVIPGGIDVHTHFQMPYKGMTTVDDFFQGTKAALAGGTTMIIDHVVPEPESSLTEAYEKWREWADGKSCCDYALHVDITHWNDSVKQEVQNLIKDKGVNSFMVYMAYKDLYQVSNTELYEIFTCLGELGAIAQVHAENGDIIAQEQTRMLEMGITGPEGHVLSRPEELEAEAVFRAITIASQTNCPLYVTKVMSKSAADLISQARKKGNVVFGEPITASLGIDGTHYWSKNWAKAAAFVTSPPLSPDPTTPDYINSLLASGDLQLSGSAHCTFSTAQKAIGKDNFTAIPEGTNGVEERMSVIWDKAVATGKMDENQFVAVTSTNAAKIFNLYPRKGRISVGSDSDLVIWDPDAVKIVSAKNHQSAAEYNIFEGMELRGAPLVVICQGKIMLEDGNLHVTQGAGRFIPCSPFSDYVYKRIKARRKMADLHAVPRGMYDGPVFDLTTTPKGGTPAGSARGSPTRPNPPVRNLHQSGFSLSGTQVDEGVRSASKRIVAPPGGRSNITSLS
UniProt P68104: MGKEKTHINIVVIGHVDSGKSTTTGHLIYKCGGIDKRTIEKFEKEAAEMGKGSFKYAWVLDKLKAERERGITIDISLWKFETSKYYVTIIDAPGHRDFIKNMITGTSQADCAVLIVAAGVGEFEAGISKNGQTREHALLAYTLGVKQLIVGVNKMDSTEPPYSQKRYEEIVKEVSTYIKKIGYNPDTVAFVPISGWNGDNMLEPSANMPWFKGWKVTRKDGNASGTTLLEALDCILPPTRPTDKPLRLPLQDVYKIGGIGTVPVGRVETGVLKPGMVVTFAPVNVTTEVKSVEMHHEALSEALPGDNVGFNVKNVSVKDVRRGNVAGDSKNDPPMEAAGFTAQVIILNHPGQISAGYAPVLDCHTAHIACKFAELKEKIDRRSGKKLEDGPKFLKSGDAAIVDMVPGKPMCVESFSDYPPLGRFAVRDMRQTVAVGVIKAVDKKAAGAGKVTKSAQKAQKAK
UniProt P11021, residues 19-654: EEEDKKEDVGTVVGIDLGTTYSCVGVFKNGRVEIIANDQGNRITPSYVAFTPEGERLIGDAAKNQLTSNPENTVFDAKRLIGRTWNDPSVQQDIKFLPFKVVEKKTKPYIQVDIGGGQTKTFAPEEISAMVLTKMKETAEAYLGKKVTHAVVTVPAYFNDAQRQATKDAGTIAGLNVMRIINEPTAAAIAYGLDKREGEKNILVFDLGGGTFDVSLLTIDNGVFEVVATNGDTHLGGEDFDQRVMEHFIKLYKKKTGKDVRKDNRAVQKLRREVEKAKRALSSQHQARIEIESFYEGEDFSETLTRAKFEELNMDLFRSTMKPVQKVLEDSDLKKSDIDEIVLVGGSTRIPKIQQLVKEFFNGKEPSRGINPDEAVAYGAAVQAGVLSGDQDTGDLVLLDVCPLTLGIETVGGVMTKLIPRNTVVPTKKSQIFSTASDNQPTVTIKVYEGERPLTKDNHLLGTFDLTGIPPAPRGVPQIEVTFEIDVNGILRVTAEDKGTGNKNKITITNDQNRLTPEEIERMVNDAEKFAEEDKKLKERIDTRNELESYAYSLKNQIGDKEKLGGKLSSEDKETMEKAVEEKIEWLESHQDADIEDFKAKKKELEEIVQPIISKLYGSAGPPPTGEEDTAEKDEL
UniProt P11142: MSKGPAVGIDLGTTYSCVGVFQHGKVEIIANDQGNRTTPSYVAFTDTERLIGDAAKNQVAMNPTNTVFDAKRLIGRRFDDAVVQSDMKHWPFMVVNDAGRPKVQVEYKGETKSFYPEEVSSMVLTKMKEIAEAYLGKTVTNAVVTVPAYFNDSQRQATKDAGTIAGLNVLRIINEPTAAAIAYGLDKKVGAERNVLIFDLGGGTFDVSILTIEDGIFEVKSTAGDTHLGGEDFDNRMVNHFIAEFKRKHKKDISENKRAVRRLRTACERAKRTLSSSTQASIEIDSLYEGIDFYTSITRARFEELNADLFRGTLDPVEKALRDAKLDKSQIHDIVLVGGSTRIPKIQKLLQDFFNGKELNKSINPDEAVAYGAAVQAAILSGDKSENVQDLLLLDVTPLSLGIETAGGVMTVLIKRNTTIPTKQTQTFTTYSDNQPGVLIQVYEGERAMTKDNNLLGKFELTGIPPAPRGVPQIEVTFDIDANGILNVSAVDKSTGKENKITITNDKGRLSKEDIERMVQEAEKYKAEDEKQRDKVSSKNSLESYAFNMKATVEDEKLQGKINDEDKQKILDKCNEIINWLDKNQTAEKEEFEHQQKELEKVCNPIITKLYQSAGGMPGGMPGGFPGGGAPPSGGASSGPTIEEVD
UniProt P10809, residues 27-573: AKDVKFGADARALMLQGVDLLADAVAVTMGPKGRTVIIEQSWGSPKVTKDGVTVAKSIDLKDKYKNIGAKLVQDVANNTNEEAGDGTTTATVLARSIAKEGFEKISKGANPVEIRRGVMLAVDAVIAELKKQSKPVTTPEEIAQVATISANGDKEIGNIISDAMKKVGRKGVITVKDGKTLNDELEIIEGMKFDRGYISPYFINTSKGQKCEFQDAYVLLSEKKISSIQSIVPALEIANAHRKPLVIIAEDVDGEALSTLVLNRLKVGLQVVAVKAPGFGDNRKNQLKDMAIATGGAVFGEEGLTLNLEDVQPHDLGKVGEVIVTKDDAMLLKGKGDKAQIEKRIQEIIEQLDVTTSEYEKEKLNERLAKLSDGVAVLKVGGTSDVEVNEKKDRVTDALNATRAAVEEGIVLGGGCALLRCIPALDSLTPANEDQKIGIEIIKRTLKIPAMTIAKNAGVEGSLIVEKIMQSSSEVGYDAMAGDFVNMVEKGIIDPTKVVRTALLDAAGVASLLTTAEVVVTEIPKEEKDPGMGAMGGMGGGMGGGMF
UniProt P22314: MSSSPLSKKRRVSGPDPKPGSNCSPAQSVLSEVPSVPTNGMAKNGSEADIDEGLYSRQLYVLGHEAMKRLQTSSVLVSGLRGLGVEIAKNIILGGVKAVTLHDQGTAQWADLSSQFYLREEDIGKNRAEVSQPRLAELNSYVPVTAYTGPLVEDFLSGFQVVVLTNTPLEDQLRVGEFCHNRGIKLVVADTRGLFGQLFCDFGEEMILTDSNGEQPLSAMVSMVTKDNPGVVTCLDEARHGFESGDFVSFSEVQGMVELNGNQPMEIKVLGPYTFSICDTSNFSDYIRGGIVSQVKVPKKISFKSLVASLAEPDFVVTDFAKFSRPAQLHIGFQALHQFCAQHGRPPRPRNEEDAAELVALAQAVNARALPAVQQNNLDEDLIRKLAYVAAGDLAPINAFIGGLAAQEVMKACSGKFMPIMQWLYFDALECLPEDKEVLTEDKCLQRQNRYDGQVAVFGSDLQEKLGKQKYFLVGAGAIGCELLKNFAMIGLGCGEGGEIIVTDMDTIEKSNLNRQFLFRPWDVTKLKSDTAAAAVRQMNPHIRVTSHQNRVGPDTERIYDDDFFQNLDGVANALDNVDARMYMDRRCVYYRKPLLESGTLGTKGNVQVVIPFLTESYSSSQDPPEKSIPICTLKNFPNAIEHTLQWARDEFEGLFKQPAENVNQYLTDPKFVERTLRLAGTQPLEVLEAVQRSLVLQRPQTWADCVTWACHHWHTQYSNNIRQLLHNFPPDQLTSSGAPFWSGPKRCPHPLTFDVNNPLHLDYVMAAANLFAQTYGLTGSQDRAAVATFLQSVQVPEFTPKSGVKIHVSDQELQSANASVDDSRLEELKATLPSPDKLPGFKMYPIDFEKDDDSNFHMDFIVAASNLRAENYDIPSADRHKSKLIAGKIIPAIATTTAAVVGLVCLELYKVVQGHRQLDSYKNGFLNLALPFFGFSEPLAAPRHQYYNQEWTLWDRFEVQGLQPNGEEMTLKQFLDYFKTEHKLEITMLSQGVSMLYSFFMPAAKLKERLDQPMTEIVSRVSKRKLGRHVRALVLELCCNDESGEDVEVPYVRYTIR

The substances below were run against interferon stimulated gene (ISG) 15 (human (endogenous in IPSC-derived neurons)) (UniProt P05161) (assay: affinity purification with mass spectrometry; lysates of human IPSC-derived neurons (non-targeted control against ISG15 knockout) treated with 100 ng/mL IFNγ for 24 h; NDG lysis buffer (1% Nonidet P-40, 0.5% deoxycholate, 10% glycerol, 20 mM Tris, 137 mM NaCl, pH 8.0); immunoprecipitated with biotinylated anti-ISG15 (clone F9) on streptavidin magnetic nanoparticles; eluted in 5% glacial acetic acid; LC-MS; hits >5 counts and >5-fold enriched over ISG15 KO precipitates).

binding, binds:
DPYSL3/CRMP4 (from UniProt Q14195 1-570)
EEF1A1 (from UniProt P68104 1-462)
HSPA5 (from UniProt P11021 19-654)
HSPA8 (from UniProt P11142 1-646)
HSPD1 (from UniProt P10809 27-573)
UBA1 (from UniProt P22314 1-1058)
